Data reported in PMC7125926 (Antiviral Research, 2015).
pEC50: −log10 of the molar value.

Legend:
[1] = MTT assay of drug toxicity in mouse lung slices; type: cell-based
[2] = tested on: PR8 (H1N1) influenza virus; type: cell-based
influenza virus = type: in vivo, mice; conditions: Fig. S5
influenza A virus = conditions: ref An et al., 2014; cited from earlier work
IP-10 = assay: tissue or blood; type: cell-based; conditions: Mus musculus, 48 h, read-out: IP-10-EC50: 50% effective concentration determined by ELISA of IP-10

| SMILES | CC50 at 48 h [1] | effect on virus replication / NA activity in lung slices (in words) [2] | protection of mice from lethal doses of influenza virus infection (in words) (influenza virus) | antiviral activity in MDCK cells (in words) (influenza A virus) | pEC50 (IP-10) |
| --- | --- | --- | --- | --- | --- |
| CCN(CC)CCOC(=O)C1(C2CCCCC2)CCCCC1 [Dicyclomine] | 65.2 µM | inhibited neither | failed to protect mice | known antiviral activity |  |
| C[S+]([O-])c1ccc(-c2nc(-c3ccncc3)c(-c3ccc(F)cc3)[nH]2)cc1 (centres unmarked) [SB203580] |  |  |  |  | 4.82 |
